Reference: patent US20110293635A1

Tests used:
[1] = target: CD14 (over-expressed in transfected HEK293 cells) (human); assay: co-immunoprecipitation from CD14-transfected HEK293 cells, immunoblot
[2] = target: CD14 (over-expressed in transfected HEK293 cells) (human); assay: co-immunoprecipitation (antibody on protein A/G beads) from CD14-transfected HEK293 cells, LPS for 0, 2 or 24 hours, immunoblot for TLR14 and CD14

- binding [1]: binds
- binding [2]: binds
B1: endogenous Toll-like Receptor 14 (TLR14) (receptor)
chain: VCPERCDCQHPQHLLCTNRGLRVVPKTSSLPSPHDVLTYSLGGNFITNITAFDFHRLGQLRRLDLQYNQIRSLHPKTFEKLSRLEELYLGNNLLQALAPGTLAPLRKLRILYANGNEISRLSRGSFEGLESLVKLRLDGNALGALPDAVFAPLGNLLYLHLESNRIRFLGKNAFAQLGKLRFLNLSANELQPSLRHAATFAPLRSLSSLILSANSLQHLGPRIFQHLPRLGLLSLRGNQLTHLAPEAFWGLEALRELRLEGNRLSQLPTALLEPLHSLEALDLSGNELSALHPATFGHLGRLRELSLRNNALSALSGDIFAASPALYRLDLDGNGWTCDCRLRGLKRWMGDWHSQGRLLTVFVQCRHPPALRGKYLDYLDDQQLQNGSCADPSPSASLTADRRRQPLPTAAGEEMTPPAGLAEELPPQPQLQQQGRFLAGVAWDGAARELVGNRSALRLSRRGPGLQQPSPSVAAAAGPAPQSLDLHKKPQRGRPTRADPALAEPTPTASPGSAPSPAGDPWQRATKHRLGTEHQERAAQSDGGAGLPPLVSDPCDFNKFILCNLTVEAVGADSASVRWAVREHRSPRPLGGARFRLLFDRFGQQPKFHRFVYLPESSDSATLRELRGDTPYLVCVEGVLGGRVCPVAPRDHCAGLVTLPEAGSRGGVDYQLLTLALLTVNALLVLLALAAWASRWLRRKLRARRKGGAPVHVRHMYSTRRPLRSMGTGVSADFSGFQSHRPRTTVCALSEADLIEFPCDRFMDSAGGGAGGSLRREDRLLQRFAD

Results are given in words; binding and its absence hold for the method and conditions named. Binding seen in cells or lysates may run through a third protein. Binding can be weak; no strength is given.
